Results from ChEMBL document CHEMBL1127350, “The squalestatins: novel inhibitors of squalene synthase. Enzyme inhibitory activities and in vivo evaluation of C1-modified analogues” (J Med Chem, 1994).

Target: T1, Squalene synthase (Rattus norvegicus, UniProt Q02769)
T1 sequence (Q02769 whole entry): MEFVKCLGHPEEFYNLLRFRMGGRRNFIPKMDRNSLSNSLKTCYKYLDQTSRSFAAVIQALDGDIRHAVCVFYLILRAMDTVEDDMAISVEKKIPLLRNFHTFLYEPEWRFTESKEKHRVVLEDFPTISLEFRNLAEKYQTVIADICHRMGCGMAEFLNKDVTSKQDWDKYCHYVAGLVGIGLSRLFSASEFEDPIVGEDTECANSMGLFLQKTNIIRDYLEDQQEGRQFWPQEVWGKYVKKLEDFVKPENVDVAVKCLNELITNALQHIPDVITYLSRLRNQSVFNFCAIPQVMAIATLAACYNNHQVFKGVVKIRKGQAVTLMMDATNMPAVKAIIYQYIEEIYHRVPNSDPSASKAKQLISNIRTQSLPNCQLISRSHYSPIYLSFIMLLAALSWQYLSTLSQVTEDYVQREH
Experiment: Inhibition of juvenile male rat liver microsomal squalene synthase

`C=C(CC[C@]12O[C@H](C(=O)O)[C@@](O)(C(=O)O)[C@](C(=O)O)(O1)[C@H](O)[C@H]2O)[C@H](OC(C)=O)[C@@H](C)Cc1ccccc1` was tested. Which IC50 did it give?
Its IC50 is 26 nM.
